Measurements taken from patent US20220289816A1, “IMMUNOTHERAPY WITH B*07 RESTRICTED PEPTIDES AND COMBINATION OF PEPTIDES AGAINST CANCERS AND RELATED METHODS” (Immatics Biotechnologies GmbH, priority 2018, published 2022).

system: tumor tissue samples and normal tissue samples (HLA-B*07 positive); test: Identification and quantitation of tumor associated peptides presented on the cell surface (HLA immunoprecipitation, label-free LC-MS); set-up: species or system human; conditions: Table 8a; cancer entities on which the peptide was found presented (abbreviations in table head)

Substance | Peptide Presentation on cancer entities
328 (LPLHRGDLVI; listed as Homo sapiens) [compound 328] | CLL
329 (QPANFIVLL; listed as Homo sapiens) [compound 329] | GBC
331 (SPDSAILKL; listed as Homo sapiens) [compound 331] | NSCLCsquam, UEC
332 (SPYAGSTAF; listed as Homo sapiens) [compound 332] | AML, NSCLCadeno
333 (SVLPRALSL; listed as Homo sapiens) [compound 333] | BRCA
335 (VPPQNPRPSL; listed as Homo sapiens) [compound 335] | AML, GBM, HNSCC, NHL, NSCLCadeno, OSCAR
337 (IPTSRVITL; listed as Homo sapiens) [compound 337] | BRCA, CLL, HCC, MEL, NHL, NSCLCadeno, NSCLCsquam, OC, OSCAR, PACA, SCLC
338 (MPATPSLKV; listed as Homo sapiens) [compound 338] | HNSCC, OC, PACA, UBC
339 (GPQRTTSV; listed as Homo sapiens) [compound 339] | CCC
340 (APEPRAALL; listed as Homo sapiens) [compound 340] | MEL, NSCLCsquam, OC
343 (RPRPPKVLGL; listed as Homo sapiens) [compound 343] | AML, CCC, HCC, MEL, NSCLCadeno, NSCLCsquam, OC, OSCAR, RCC, SCLC, UEC
346 (IPMPRITWL; listed as Homo sapiens) [compound 346] | BRCA
349 (QPRDGWPMML; listed as Homo sapiens) [compound 349] | HNSCC, OSCAR
350 (RPKSTLMNF; listed as Homo sapiens) [compound 350] | OC, OSCAR
351 (SPYADIIPSA; listed as Homo sapiens) [compound 351] | HNSCC
352 (LPAFSKIGGIL; listed as Homo sapiens) [compound 352] | CRC, MEL
353 (KPRATWTL; listed as Homo sapiens) [compound 353] | AML, BRCA, CCC, CLL, GBC, GC, HCC, HNSCC,MEL, NSCLCadeno, NSCLCsquam, OC, OSCAR, PACA, RCC, SCLC, UEC
356 (RPFLRLPSL; listed as Homo sapiens) [compound 356] | CRC, HCC, HNSCC, OC, OSCAR
357 (LPPHIFAI; listed as Homo sapiens) [compound 357] | CRC, GC, HCC, UEC
358 (APSMLRKNQL; listed as Homo sapiens) [compound 358] | HCC

Substance | Peptide Presentation on cancer entities
359 (SPRRLVELAGQSL; listed as Homo sapiens) [compound 359] | MEL, OC, OSCAR, UEC
361 (SPYGSDRLVQL; listed as Homo sapiens) [compound 361] | CLL, NHL
362 (KPMLPPAAF; listed as Homo sapiens) [compound 362] | UEC
363 (KPRTPFTTA; listed as Homo sapiens) [compound 363] | UEC
364 (KPRTPFTTAQL; listed as Homo sapiens) [compound 364] | BRCA, CRC, GBM, RCC, UEC
365 (RPKHFLQML; listed as Homo sapiens) [compound 365] | OSCAR
366 (SPTLRQLDL; listed as Homo sapiens) [compound 366] | CCC, HCC
368 (NPASRLTAL; listed as Homo sapiens) [compound 368] | BRCA, CCC, CRC, GBC, GBM, GC, HCC, HNSCC, MEL, NHL, NSCLCadeno, NSCLCsquam, OC, OSCAR, PACA, PRCA, RCC, SCLC, UBC, UEC
370 (AAHEFGHVL; listed as Homo sapiens) [compound 370] | BRCA, UEC
371 (APRSPGQVTPRGL; listed as Homo sapiens) [compound 371] | NSCLCadeno, OC
372 (SPSSASLTL; listed as Homo sapiens) [compound 372] | GBC, NSCLCsquam, OSCAR
373 (LPKPDLPQLI; listed as Homo sapiens) [compound 373] | AML, BRCA, HCC, MEL, NSCLCadeno, PRCA, RCC, UEC
374 (KPRNMTGLDL; listed as Homo sapiens) [compound 374] | CLL
375 (LPRGVLEGL; listed as Homo sapiens) [compound 375] | CRC, NSCLCadeno, UEC
377 (SPFSKRIKL; listed as Homo sapiens) [compound 377] | AML, BRCA, CLL, GC, HNSCC, MEL, NHL, NSCLCadeno, NSCLCsquam, OC, OSCAR, RCC, SCLC, UBC, UEC
379 (GPRQVLFPL; listed as Homo sapiens) [compound 379] | AML, BRCA, CCC, CRC, GBC, GBM, GC, HCC, HNSCC, MEL, NHL, NSCLCadeno, NSCLCsquam, OC, OSCAR, PACA, PRCA, RCC, SCLC, UBC, UEC
380 (SPYPGSAAF; listed as Homo sapiens) [compound 380] | BRCA, NSCLCadeno, OSCAR
382 (RPGPQRTTSV; listed as Homo sapiens) [compound 382] | BRCA, CCC, CLL, HCC, MEL, NHL, OC, OSCAR, PRCA, SCLC, UEC
383 (KPRATWTLKL; listed as Homo sapiens) [compound 383] | BRCA, CCC, CRC, GBC, GC, HCC, HNSCC, MEL, NHL, NSCLCadeno, NSCLCsquam, OC, OSCAR, RCC, SCLC, UEC

same assay, conditions: Table 8b; cancer entities on which the peptide was found presented (abbreviations in table head)

Substance | Peptide Presentation on cancer entities
450 (SAAARALLP; listed as Homo sapiens) [compound 450] | CCC, CRC, GBM, GC, HCC, NSCLCother, NSCLCsquam, PACA, SCLC, UEC
454 (SPDPAHLESL; listed as Homo sapiens) [compound 454] | NSCLCother
456 (VPVSHPVLTL; listed as Homo sapiens) [compound 456] | NSCLCsquam
457 (RPPLSQRHTF; listed as Homo sapiens) [compound 457] | NHL
459 (SPAPWRPWI; listed as Homo sapiens) [compound 459] | SCLC
460 (APLMPLGKTL; listed as Homo sapiens) [compound 460] | PACA
461 (MPHLGPGILL; listed as Homo sapiens) [compound 461] | MEL
462 (MPLLADVRL; listed as Homo sapiens) [compound 462] | MEL
463 (LPTDLFNSVM; listed as Homo sapiens) [compound 463] | MEL
467 (VPRNQDWLGVSRQL; listed as Homo sapiens) [compound 467] | MEL
468 (LPSLHVLVL; listed as Homo sapiens) [compound 468] | MEL
469 (LPLDTRTSI; listed as Homo sapiens) [compound 469] | CLL
471 (LPLLAGTLLL; listed as Homo sapiens) [compound 471] | NSCLCadeno
472 (LPMPAITWY; listed as Homo sapiens) [compound 472] | MEL
473 (LPGEREAAL; listed as Homo sapiens) [compound 473] | MEL
474 (VPKADLLTL; listed as Homo sapiens) [compound 474] | MEL
475 (IPLEIQKL; listed as Homo sapiens) [compound 475] | MEL
476 (EPNPVEEIF; listed as Homo sapiens) [compound 476] | NSCLCsquam

Substance | Peptide Presentation on cancer entities
477 (NPVPVITWYKDNRL; listed as Homo sapiens) [compound 477] | MEL
479 (APHAGGALL; listed as Homo sapiens) [compound 479] | NSCLCsquam
480 (VPAAPTKAL; listed as Homo sapiens) [compound 480] | CLL
482 (QPSLKKIIL; listed as Homo sapiens) [compound 482] | PACA
484 (LPASAEPKGTM; listed as Homo sapiens) [compound 484] | HNSCC
485 (LPLKTKVFA; listed as Homo sapiens) [compound 485] | NSCLCsquam
486 (TPTRPLPSA; listed as Homo sapiens) [compound 486] | NSCLCadeno
487 (IPWFIKTAF; listed as Homo sapiens) [compound 487] | MEL
489 (WPNHIMLVL; listed as Homo sapiens) [compound 489] | MEL
491 (MPEADLKRIF; listed as Homo sapiens) [compound 491] | MEL
492 (IPFSVDEI; listed as Homo sapiens) [compound 492] | NSCLCother, UEC
493 (LPLQQYKLV; listed as Homo sapiens) [compound 493] | HCC
494 (LPLRAVNLNL; listed as Homo sapiens) [compound 494] | SCLC
495 (SPSYTQASL; listed as Homo sapiens) [compound 495] | BRCA
496 (MPAVSGPGPLF; listed as Homo sapiens) [compound 496] | NSCLCadeno
498 (RPQPQPRPAL; listed as Homo sapiens) [compound 498] | HNSCC, OSCAR
499 (QPVLPSPAC; listed as Homo sapiens) [compound 499] | MEL
